Reference: paper PMC11054660

B1: periplasmic E. coli chaperon PpiD, endogenous in E. coli (protein, UniProt P0ADY1 1-623)
chain: MMDSLRTAANSLVLKIIFGIIIVSFILTGVSGYLIGGGNNYAAKVNDQEISRGQFENAFNSERNRMQQQLGDQYSELAANEGYMKTLRQQVLNRLIDEALLDQYARELKLGISDEQVKQAIFATPAFQVDGKFDNSRYNGILNQMGMTADQYAQALRNQLTTQQLINGVAGTDFMLKGETDELAALVAQQRVVREATIDVNALAAKQPVTEQEIASYYEQNKNNFMTPEQFRVSYIKLDAATMQQPVSDADIQSYYDQHQDQFTQPQRTRYSIIQTKTEDEAKAVLDELNKGGDFAALAKEKSADIISARNGGDMGWLEDATIPDELKNAGLKEKGQLSGVIKSSVGFLIVRLDDIQPAKVKSLDEVRDDIAAKVKHEKALDAYYALQQKVSDAASNDTESLAGAEQAAGVKATQTGWFSKDNLPEELNFKPVADAIFNGGLVGENGAPGINSDIITVDGDRAFVLRISEHKPEAVKPLADVQEQVKALVQHNKAEQQAKVDAEKLLVDLKAGKGAEAMQAAGLKFGEPKTLSRSGRDPISQAAFALPLPAKDKPSYGMATDMQGNVVLLALDEVKQGSMPEDQKKAMVQGITQNNAQIVFEALMSNLRKEAKIKIGDALEQQ
B2: cell division protein DamX, endogenous in E. coli (protein, UniProt P11557 1-428)
chain: MDEFKPEDELKPDPSDRRTGRSRQSSERSERTERGEPQINFDDIELDDTDDRRPTRAQKERNEEPEIEEEIDESEDETVDEERVERRPRKRKKAASKPASRQYMMMGVGILVLLLLIIGIGSALKAPSTTSSDQTASGEKSIDLAGNATDQANGVQPAPGTTSAENTQQDVSLPPISSTPTQGQTPVATDGQQRVEVQGDLNNALTQPQNQQQLNNVAVNSTLPTEPATVAPVRNGNASRDTAKTQTAERPSTTRPARQQAVIEPKKPQATVKTEPKPVAQTPKRTEPAAPVASTKAPAATSTPAPKETATTAPVQTASPAQTTATPAAGAKTAGNVGSLKSAPSSHYTLQLSSSSNYDNLNGWAKKENLKNYVVYETTRNGQPWYVLVSGVYASKEEAKKAVSTLPADVQAKNPWAKPLRQVQADLK
B3: succinate dehydrogenase SdhA, endogenous in E. coli (protein, UniProt P0AC41 1-588)
chain: MKLPVREFDAVVIGAGGAGMRAALQISQSGQTCALLSKVFPTRSHTVSAQGGITVALGNTHEDNWEWHMYDTVKGSDYIGDQDAIEYMCKTGPEAILELEHMGLPFSRLDDGRIYQRPFGGQSKNFGGEQAARTAAAADRTGHALLHTLYQQNLKNHTTIFSEWYALDLVKNQDGAVVGCTALCIETGEVVYFKARATVLATGGAGRIYQSTTNAHINTGDGVGMAIRAGVPVQDMEMWQFHPTGIAGAGVLVTEGCRGEGGYLLNKHGERFMERYAPNAKDLAGRDVVARSIMIEIREGRGCDGPWGPHAKLKLDHLGKEVLESRLPGILELSRTFAHVDPVKEPIPVIPTCHYMMGGIPTKVTGQALTVNEKGEDVVVPGLFAVGEIACVSVHGANRLGGNSLLDLVVFGRAAGLHLQESIAEQGALRDASESDVEASLDRLNRWNNNRNGEDPVAIRKALQECMQHNFSVFREGDAMAKGLEQLKVIRERLKNARLDDTSSEFNTQRVECLELDNLMETAYATAVSANFRTESRGAHSRFDFPDRDDENWLCHSLYLPESESMTRRSVNMEPKLRPAFPPKIRTY

target: T1, gp27-N-His built into modified T4 amber27 phage particles (bacteriophage T4) (UniProt P17172); assay: cross-linking + affinity purification with mass spectrometry; E. coli C3022 cells infected with CsCl-purified T4 amber27 phages carrying gp27-N-His (m.o.i. 2), 0.44% paraformaldehyde, 10 min, 37 °C; lysis with 1% Triton-X-100 and 2.5 M urea; nickel affinity chromatography, SDS-PAGE, MALDI of the 75, 100 and 150 kDa bands
T1 sequence: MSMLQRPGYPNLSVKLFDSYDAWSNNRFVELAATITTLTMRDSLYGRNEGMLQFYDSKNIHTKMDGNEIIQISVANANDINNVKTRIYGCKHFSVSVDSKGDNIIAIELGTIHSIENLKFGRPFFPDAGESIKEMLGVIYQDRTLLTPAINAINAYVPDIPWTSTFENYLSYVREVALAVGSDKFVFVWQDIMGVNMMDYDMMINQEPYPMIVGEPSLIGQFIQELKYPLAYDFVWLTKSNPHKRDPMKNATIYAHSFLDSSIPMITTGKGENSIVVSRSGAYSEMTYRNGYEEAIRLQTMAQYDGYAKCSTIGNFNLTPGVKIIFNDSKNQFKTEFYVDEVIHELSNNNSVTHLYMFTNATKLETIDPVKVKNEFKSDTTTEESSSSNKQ

| Binder | binding |
| --- | --- |
| B1 | binds |
| B2 | binds |
| B3 | binds |

target: T2, T4 gp27 with an N-terminal 10xHis-tag (gp27-N), purified (bacteriophage T4) (UniProt P17172); assay: cross-linking + affinity purification with mass spectrometry; purified gp27-N added to E. coli C3022 spheroplasts, 0.44% paraformaldehyde, RT, 20 min; lysis with 1% Triton-X-100; TALON Superflow (nickel) affinity chromatography, SDS-PAGE, MALDI of the 75 kDa and 150 kDa bands; only the target purified
T2 sequence: T1 sequence

| Binder | binding |
| --- | --- |
| B1 | binds |
| B2 | binds |
| B3 | binds |

No constants are given. Whether binding was seen depends on the method and setting. In cells and extracts the contact can be indirect. These calls come from enrichment with a bait or labelling near it, and not all partners need be listed. Where a sequence is shown, tags or fusion partners need not be part of it.
